The text below walks through data of PMC7612807.

By UniProt entry, the sequences of proteins in these tests, tags left out.
UniProt Q9P296: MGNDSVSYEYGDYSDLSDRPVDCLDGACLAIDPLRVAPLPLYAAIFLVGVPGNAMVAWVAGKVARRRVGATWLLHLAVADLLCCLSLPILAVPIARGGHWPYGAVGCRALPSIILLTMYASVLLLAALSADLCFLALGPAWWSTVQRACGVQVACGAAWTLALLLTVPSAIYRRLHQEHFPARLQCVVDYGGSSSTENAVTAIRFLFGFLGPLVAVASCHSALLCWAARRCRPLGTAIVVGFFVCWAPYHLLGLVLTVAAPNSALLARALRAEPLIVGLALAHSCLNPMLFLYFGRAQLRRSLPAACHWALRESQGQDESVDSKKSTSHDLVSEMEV
UniProt P49407: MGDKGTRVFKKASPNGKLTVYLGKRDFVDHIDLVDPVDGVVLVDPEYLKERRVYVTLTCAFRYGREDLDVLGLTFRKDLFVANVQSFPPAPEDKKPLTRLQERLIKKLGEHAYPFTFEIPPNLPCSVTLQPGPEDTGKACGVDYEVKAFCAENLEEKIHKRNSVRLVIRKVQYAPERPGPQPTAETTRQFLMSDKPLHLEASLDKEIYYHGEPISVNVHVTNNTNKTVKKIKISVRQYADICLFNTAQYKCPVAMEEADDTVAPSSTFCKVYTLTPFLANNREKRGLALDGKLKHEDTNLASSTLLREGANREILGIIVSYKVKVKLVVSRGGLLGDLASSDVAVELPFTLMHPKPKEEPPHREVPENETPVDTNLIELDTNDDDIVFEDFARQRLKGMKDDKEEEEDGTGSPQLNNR
UniProt P32121: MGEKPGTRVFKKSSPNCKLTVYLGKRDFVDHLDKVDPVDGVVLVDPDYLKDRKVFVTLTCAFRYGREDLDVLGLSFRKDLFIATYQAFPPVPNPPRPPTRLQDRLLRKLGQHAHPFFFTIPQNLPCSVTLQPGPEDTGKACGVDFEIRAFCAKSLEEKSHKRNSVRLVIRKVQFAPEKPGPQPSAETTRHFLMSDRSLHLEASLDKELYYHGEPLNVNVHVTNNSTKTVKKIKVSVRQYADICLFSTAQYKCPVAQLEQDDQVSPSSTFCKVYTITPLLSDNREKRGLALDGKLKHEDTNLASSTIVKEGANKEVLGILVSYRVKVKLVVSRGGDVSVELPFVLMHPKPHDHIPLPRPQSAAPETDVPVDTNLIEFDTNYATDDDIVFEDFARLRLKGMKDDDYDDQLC

Experiment [1] has as its target FLAG-tagged complement C5a receptor subtype 2 (UniProt Q9P296). Briefly: co-IP + cross-linking; lysate of HEK293 cells expressing FLAG-receptor, stimulated with 100 nM agonist (C5a for C5aR2, CCL7 for D6R); purified βarr1 or βarr2 (2.5 μg) added, 1 h room temperature; DSP 1.5 mM; solubilised in 1% MNG; captured on FLAG M1 antibody beads; blot with anti-βarr antibody; only the binder purified.

Experiment [2] addresses T1, FLAG-tagged decoy D6 receptor, wild type (human) (UniProt O00590).
T1 sequence: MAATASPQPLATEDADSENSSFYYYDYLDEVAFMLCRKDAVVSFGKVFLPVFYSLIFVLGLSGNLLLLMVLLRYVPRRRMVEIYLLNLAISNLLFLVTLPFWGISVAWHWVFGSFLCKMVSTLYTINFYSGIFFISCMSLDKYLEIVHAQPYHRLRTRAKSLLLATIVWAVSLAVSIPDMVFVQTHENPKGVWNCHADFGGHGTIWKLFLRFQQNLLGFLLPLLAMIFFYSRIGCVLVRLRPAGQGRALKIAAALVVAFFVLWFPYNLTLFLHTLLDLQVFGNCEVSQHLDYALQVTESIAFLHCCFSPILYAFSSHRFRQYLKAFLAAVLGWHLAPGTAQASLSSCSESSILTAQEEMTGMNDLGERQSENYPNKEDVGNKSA
Described as above.

Experiment [3] concerns the target FLAG-tagged complement C5a receptor subtype 2 (UniProt Q9P296). Briefly: co-IP + cross-linking; βarr1 or βarr2 (3.5 μg DNA) co-expressed with the FLAG-receptor in HEK293 cells; agonist stimulation; DSP cross-linking; FLAG M1 beads; blot with anti-βarr antibody.
Experiment [4] deals with T1, FLAG-tagged decoy D6 receptor, wild type (human). The description is as above.
Experiment [5] has the same target. Description: co-IP + cross-linking; HEK293 cells co-transfected with D6R-WT or truncations (surface expression normalised) and βarr2; 100 nM CCL7 for 30 min; lysis in 20 mM HEPES pH 7.5, 350 mM NaCl; DSP 1.5 mM; 1% MNG; M1-FLAG beads, low and high salt washes; blot with anti-βarr antibody.

These are yes or no findings as the source states them, for the method shown. In cells and extracts the contact can be indirect. Some binding calls cover weakened binding; strength is not graded here. For part of these data: Where a sequence is shown, tags or fusion partners need not be part of it.

For the substance “purified β-arrestin 1 (from UniProt P49407 1-418)”, the binding result in experiment [1] and in experiment [2] was “binds” each time.
With “β-arrestin 2 co-expressed with the receptor in HEK293 cells (from UniProt P32121 1-409)”, the binding result in experiment [3], in experiment [4] and in experiment [5] was “binds” each time.
As to “β-arrestin 1 co-expressed with the receptor in HEK293 cells (from UniProt P49407 1-418)”, the binding result in experiment [3] and in experiment [4] was “binds” throughout.
Regarding “purified β-arrestin 2 (from UniProt P32121 1-409)”, the binding result in experiment [1] and in experiment [2] was “binds” each time.
